According to PMC11677126, “Synthesis and Structure–Activity Relationship of Thiourea Derivatives Against Leishmania amazonensis” (Pharmaceuticals, 2024):

System: L. amazonensis intracellular amastigotes
Assay: Antiamastigote assay in infected peritoneal macrophages (infection index)
Type: cell-based, Leishmania amazonensis
Details: selectivity index, macrophage CC50 versus amastigote IC50
Method: Resident macrophages from BALB/c mice were obtained by peritoneal lavage with 5 mL of cold RPMI medium. The cell suspension was adjusted to a 2 × 10^6 cells/mL concentration and plated in LAB-TEK chambers. After 1 h, the cultures were washed with phosphate-buffered saline at 37 °C to remove non-adherent cells. The remaining cells were incubated at 37 °C/5% CO2 with promastigotes of L. amazonensis at a ratio of 3:1. After 3 h, the chambers were rewashed to remove free parasites. […] For G2, we first tested only at a concentration of 10 µM, and derivatives with inhibition above 60% were evaluated using the dose–response curve. The antiamastigote activity was evaluated microscopically after staining the chambers with the Instant Prov hematological dye system (Newprov, Curitiba, Brazil); at least 100 macrophages were counted per sample. The results were expressed as the infection index (IF) using the following formula: IF = % infected cells X (number of amastigotes/total macrophages). The IC50 value was determined by nonlinear regression using Graph Pad Prism 9.0.

Structure (SMILES) | SI (G1 thioureas) | SI (G2 piperazine thioureas)
S=C(Nc1ccccc1)Nc1ccccn1 [Thiourea 3d] | >37 | 
S=C(Nc1ccccc1)Nc1ccc(Br)cc1 [Thiourea 3p] | >45.9 | 
S=C(NCc1ccccc1)N1CCN(C(c2ccccc2)c2ccccc2)CC1 [Thiourea 5h] |  | >14.2
COc1cc(NC(=S)N2CCN(C(c3ccccc3)c3ccccc3)CC2)cc(OC)c1OC [Thiourea 5t] |  | 16.6
